Experimental data published in publication PMC6420155.
These are yes or no findings as the source states them, for the method shown. In cells and extracts the contact can be indirect. A result given as binding can be weak or reduced; the word gives no strength.

By UniProt entry, the sequences of proteins in these tests, tags left out. Where a name states a change or a piece, a line headed by the entry shows the natural chain unless it says otherwise.
UniProt P08172: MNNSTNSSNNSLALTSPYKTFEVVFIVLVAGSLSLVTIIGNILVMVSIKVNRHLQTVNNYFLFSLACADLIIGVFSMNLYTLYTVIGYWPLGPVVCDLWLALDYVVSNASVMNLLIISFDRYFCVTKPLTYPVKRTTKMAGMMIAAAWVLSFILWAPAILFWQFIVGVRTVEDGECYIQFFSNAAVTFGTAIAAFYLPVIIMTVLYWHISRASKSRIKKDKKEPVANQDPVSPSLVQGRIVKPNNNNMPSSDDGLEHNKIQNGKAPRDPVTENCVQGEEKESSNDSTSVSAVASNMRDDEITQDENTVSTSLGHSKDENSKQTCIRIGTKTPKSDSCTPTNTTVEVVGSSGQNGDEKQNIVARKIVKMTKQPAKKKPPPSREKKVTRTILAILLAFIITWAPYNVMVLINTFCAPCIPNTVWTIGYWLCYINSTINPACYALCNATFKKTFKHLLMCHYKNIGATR
UniProt P21728: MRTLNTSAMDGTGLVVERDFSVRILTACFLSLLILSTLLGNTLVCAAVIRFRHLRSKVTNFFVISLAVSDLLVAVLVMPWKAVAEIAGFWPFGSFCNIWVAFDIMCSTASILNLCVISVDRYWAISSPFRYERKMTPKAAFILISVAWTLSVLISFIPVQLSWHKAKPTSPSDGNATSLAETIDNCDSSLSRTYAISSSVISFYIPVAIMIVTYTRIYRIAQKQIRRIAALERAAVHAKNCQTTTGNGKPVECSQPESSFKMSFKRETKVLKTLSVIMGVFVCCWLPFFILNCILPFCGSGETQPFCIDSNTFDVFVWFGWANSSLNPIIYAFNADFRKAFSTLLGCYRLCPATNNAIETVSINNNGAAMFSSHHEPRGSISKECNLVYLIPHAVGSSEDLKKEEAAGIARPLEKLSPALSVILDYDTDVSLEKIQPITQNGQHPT
UniProt P32120: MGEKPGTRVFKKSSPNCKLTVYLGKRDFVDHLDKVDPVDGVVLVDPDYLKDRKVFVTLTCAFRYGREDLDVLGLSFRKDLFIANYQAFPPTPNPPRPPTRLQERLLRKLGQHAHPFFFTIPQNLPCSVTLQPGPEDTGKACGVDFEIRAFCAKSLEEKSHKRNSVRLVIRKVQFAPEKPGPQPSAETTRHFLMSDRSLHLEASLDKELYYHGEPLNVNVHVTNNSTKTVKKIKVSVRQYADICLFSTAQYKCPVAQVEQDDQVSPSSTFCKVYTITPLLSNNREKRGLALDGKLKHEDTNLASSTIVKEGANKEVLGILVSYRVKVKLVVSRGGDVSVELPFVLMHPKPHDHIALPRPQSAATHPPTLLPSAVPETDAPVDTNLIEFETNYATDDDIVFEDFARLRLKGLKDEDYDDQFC

Tests used:
[1] = biological target: M2 muscarinic acetylcholine receptor, C-terminally tagged with Renilla luciferase variant 8 (human) (UniProt P08172); test: FRET or BRET; in-cell BRET in HEK293 arrestin-2/3 KO cells co-transfected with Venus-arrestin-3 (acceptor) and receptor-RLuc8 (donor); 10 uM agonist (carbachol for M2R, isoproterenol for β2AR, dopamine for D1R, quinpirole for D2R), 5 uM coelenterazine h; net BRET (with minus without agonist), average at 10 and 15 min and time course
[2] = biological target: dopamine D1 receptor, C-terminally tagged with Renilla luciferase variant 8 (human) (UniProt P21728); test: as above

| Substance | binding [1] | binding [2] |
| --- | --- | --- |
| Venus-tagged arrestin-3 A87V base mutant (from UniProt P32120) | binds | binds |
| Venus-tagged arrestin-3 E157A (on the A87V background) (from UniProt P32120) | binds | binds |
| Venus-tagged arrestin-3 F245A (on the A87V background) (from UniProt P32120) | binds | binds |
| Venus-tagged arrestin-3 G65P (on the A87V background) (from UniProt P32120) | binds | binds |
| Venus-tagged arrestin-3 K313A (on the A87V background) (from UniProt P32120) | binds | binds |
| Venus-tagged arrestin-3 ΔG65 (on the A87V background) (from UniProt P32120) | binds | binds |
